We go through 6 substances from PMC6739472.

Amino acid sequences for entries named in this document (tags omitted).
UniProt Q9Y4B6: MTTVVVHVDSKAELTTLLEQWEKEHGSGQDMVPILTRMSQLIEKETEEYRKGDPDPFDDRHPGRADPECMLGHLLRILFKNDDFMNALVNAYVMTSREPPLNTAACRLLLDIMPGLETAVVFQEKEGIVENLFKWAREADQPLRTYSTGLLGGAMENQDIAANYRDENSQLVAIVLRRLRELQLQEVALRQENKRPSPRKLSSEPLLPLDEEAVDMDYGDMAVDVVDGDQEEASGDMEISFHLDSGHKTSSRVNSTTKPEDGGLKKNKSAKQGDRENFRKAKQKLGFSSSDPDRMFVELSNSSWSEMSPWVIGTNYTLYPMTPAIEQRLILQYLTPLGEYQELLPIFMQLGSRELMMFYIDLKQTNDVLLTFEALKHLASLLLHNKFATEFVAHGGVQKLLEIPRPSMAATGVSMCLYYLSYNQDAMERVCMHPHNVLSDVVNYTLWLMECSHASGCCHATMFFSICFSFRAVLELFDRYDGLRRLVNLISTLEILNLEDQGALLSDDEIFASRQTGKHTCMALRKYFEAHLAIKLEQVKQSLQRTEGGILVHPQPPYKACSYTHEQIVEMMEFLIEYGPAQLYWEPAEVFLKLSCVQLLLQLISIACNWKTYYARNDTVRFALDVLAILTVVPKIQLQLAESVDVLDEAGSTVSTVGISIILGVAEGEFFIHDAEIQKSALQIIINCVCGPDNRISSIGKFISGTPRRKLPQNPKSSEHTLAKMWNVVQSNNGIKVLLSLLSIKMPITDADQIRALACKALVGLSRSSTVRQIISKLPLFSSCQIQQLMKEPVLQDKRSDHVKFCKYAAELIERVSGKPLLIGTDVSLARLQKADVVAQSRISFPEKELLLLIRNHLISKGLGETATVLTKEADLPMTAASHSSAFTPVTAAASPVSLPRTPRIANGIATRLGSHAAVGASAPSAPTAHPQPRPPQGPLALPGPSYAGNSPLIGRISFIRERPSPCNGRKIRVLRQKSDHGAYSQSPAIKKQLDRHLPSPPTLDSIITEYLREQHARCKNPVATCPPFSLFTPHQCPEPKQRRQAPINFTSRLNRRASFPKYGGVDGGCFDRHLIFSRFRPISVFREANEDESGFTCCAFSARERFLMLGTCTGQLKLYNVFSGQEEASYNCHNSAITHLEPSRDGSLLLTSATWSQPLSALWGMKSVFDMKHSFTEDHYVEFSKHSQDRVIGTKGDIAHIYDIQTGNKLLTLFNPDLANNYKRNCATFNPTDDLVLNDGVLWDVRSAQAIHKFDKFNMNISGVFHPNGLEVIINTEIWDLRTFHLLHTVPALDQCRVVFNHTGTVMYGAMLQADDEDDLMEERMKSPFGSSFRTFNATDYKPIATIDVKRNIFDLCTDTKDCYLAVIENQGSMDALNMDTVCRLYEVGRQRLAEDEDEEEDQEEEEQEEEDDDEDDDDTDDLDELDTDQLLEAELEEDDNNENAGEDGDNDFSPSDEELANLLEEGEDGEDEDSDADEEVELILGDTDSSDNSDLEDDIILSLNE
UniProt Q9C0K0: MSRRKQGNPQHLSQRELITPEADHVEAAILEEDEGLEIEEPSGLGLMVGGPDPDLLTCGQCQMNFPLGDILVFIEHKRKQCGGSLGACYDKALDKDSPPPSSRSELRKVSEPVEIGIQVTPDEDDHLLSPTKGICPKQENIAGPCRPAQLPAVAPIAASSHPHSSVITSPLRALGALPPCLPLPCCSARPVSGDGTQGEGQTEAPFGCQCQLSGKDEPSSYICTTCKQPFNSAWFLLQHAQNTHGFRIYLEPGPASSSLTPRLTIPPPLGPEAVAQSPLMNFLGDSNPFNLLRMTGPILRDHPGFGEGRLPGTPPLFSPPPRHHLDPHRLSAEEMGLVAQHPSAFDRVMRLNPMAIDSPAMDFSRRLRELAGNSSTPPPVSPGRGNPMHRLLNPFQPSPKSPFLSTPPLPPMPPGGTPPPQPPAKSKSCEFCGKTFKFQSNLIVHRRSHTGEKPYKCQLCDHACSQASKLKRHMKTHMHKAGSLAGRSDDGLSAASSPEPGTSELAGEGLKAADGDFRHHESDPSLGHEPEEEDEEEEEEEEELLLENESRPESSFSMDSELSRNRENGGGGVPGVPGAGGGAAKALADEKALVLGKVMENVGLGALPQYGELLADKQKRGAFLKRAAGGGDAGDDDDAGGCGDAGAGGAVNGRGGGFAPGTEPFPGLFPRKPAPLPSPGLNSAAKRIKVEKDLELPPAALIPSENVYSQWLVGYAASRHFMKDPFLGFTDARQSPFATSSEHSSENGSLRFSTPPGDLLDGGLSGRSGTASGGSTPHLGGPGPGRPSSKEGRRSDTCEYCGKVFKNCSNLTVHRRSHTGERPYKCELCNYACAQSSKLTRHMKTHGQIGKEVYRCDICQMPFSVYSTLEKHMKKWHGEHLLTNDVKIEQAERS
UniProt P12520: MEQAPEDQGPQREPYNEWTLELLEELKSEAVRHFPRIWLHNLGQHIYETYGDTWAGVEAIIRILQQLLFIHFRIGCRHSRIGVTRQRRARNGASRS
UniProt Q92769: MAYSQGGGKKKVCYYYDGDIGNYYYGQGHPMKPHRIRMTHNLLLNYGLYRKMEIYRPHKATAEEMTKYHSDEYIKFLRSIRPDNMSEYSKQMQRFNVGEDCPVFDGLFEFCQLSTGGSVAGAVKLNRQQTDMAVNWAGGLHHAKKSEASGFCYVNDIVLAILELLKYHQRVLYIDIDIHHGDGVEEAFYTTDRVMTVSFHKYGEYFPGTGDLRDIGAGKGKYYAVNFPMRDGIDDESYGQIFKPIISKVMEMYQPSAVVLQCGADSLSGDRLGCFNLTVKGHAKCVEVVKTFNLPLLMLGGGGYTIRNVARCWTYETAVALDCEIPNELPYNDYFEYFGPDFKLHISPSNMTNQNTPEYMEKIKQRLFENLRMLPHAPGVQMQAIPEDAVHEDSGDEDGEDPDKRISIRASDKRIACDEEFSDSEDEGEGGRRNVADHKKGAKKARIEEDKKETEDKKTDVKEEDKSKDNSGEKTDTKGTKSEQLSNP
UniProt Q16531: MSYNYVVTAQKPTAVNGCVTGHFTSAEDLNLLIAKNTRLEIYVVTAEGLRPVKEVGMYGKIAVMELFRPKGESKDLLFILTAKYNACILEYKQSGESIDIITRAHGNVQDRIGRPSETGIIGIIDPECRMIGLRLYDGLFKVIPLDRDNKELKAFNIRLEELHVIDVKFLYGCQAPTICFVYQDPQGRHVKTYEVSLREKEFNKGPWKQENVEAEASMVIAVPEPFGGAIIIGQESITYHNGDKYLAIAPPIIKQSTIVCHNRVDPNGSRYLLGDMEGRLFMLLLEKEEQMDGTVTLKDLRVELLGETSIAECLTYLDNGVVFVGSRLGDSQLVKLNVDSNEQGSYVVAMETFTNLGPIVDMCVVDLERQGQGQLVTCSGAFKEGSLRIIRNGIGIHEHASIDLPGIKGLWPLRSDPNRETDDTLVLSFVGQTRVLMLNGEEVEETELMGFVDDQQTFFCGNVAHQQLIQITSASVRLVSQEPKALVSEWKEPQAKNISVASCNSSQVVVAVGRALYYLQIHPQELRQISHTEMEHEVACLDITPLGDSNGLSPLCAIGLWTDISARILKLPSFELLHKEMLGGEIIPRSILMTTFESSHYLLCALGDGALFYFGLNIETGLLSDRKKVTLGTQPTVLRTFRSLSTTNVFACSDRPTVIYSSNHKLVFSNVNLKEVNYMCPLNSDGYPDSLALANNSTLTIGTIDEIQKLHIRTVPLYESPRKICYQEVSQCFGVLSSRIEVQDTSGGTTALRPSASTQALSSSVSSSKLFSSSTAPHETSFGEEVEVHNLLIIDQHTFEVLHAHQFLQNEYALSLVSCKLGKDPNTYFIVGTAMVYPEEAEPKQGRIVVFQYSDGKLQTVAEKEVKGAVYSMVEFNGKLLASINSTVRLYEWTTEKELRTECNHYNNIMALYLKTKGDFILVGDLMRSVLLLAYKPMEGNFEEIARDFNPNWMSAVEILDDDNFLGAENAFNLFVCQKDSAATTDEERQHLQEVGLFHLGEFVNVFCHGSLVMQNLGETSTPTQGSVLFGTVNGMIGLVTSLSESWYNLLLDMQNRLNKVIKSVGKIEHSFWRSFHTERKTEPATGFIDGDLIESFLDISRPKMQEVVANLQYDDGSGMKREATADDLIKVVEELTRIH

One assay concerns the target GFP-DCAF1 (UniProt Q9Y4B6). Briefly: FRET or BRET; FLIM-FRET in transfected microglial cells; eGFP-DCAF1 donor, mRFP-CTIP2 acceptor; lifetime of GFP in the nuclear structures; with or without Vpr. (In general: In BRET a luciferase serves as donor, and the signal depends on an acceptor being close.)
The target of assay [1] is CTIP2 (construct not stated) (UniProt Q9C0K0). Briefly: co-IP; sequential immunoprecipitation: FLAG-DCAF1 complexes eluted with FLAG peptides from the first IP, then second IP targeting CTIP2; western blot. On the technique in general: A western blot detects proteins with antibodies after separation by electrophoresis.
The target of a further assay is FLAG-DCAF1 (UniProt Q9Y4B6). The assay is described as follows: co-IP; nuclear extracts of transfected cells, two days post-transfection; immunoprecipitation of the tagged bait (Tap-CTIP2, HA-Vpr, or FLAG-DCAF1 with anti-FLAG), western blot; Figure 4E from MG132-treated cells; Figure 5C with strong overexpression of Tap-CTIP2.
A further assay deals with HA-Vpr wt (HIV-1) (UniProt P12520). The description is as above.
A further assay has as its target Tap-CTIP2 (UniProt Q9C0K0). The description is as above.

These are yes or no findings as the source states them, for the method shown. Binding seen in cells or lysates may run through a third protein. Some entries that bind do so weakly or less than the wild type.

RFP-CTIP2 (from UniProt Q9C0K0 1-894): the binding result with GFP-DCAF1 was “binds”. As for “HDAC2 (from UniProt Q92769 1-488) (enzyme)”, the binding entry (in assay [1]; with FLAG-DCAF1) was “binds” in each case. As for “CTIP2 (construct not stated) (from UniProt Q9C0K0 1-894)”, the binding entry with HA-Vpr wt (HIV-1) and with FLAG-DCAF1 was “binds” in each case. As to Myc-DDB1 (from UniProt Q16531 1-1140), the binding result with HA-Vpr wt (HIV-1) and with Tap-CTIP2 was “binds” throughout.

With Tap-CTIP2 (from UniProt Q9C0K0 1-894), the binding entry in the assay with HA-Vpr wt (HIV-1) is recorded as “binds”. In the case of FLAG-DCAF1 (from UniProt Q9Y4B6 1-1507), the binding entry (in assay [1]; with Tap-CTIP2) was “binds” each time.
